Laboratory results reported in article PMC12613626.
Results are given in words; binding and its absence hold for the method and conditions named. Binding seen in cells or lysates may run through a third protein. A yes stands for co-enrichment or nearness to the bait. Other partners may have been found. Where a sequence is shown, tags or fusion partners need not be part of it.

Sequences of proteins named here, by UniProt entry; tags and fusion partners are left off.
UniProt Q13562: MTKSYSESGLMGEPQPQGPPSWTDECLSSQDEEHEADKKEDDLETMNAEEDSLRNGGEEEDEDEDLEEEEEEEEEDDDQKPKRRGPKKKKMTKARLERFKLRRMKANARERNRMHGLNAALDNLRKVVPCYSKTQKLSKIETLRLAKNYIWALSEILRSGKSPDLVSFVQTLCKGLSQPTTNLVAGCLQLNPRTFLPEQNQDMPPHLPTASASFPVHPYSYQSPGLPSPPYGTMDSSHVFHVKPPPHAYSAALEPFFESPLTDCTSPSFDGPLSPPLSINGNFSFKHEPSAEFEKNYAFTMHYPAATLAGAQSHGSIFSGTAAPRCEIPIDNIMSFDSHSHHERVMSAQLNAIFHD

Biological target: GFP-labeled NeuroD1 (neurogenic differentiation factor 1) overexpressed in Panc-1 cells (UniProt Q13562)
Test: affinity purification with mass spectrometry; Co-IP from OE-NeuroD1-GFP Panc-1 cells against normal IgG control; lysis in NETN buffer (20 mM Tris-HCl pH 8.0, 100 mM NaCl, 1 mM EDTA, 0.5% NP-40), antibody pre-bound to Protein A/G agarose, 4 h at 4 °C, five washes, mass spectrometry; hits crossed with a PPI network database

B1: Neurogenin 3 (Neurog3) in NeuroD1-GFP-overexpressing Panc-1 cells (protein, UniProt Q9Y4Z2 1-214)
chain: MTPQPSGAPTVQVTRETERSFPRASEDEVTCPTSAPPSPTRTRGNCAEAEEGGCRGAPRKLRARRGGRSRPKSELALSKQRRSRRKKANDRERNRMHNLNSALDALRGVLPTFPDDAKLTKIETLRFAHNYIWALTQTLRIADHSLYALEPPAPHCGELGSPGGSPGDWGSLYSPVSQAGSLSPAASLEERPGLLGATFSACLSPGSLAFSDFL
For B1, the binding was “binds”.
